Measured values as given in patent US20200368249A1 (priority 2017, published 2020).
Some entries share one result that the patent states for a list of compounds. At least one compound was matched to its structure with a doubt left.

Test system: Mtb-RG
Assay type: cell-based, Mycobacterium tuberculosis
Settings: 5 µM

Row | SMILES | inhibition of Mtb-RG relative to untreated controls [%]
1 | C1=NCCCN=Cc2ccc3[n]2[Au+][n]2c1ccc2-c1nc2ccccc2nc1-3.F[P-](F)(F)(F)(F)F [Compound 8] | > 50
2 | C1=NCCCCN=Cc2ccc3[n]2[Au+][n]2c1ccc2-c1nc2ccccc2nc1-3.F[P-](F)(F)(F)(F)F [Compound 10] | > 50
3 | ClC1CN=Cc2ccc3[n]2[Au+][n]2c(ccc2-c2nc4ccccc4nc2-3)C=NC1.F[P-](F)(F)(F)(F)F (stereo not shown) [Compound 11] | > 50
4 | CCOC1CN=Cc2ccc[n]2[Au+][n]2cccc2C=NC1.F[P-](F)(F)(F)(F)F (stereo not shown) [Compound 15] | > 50
